Measurements: article PMC8024384
No constants are given. Whether binding was seen depends on the method and setting. Binding seen in cells or lysates may run through a third protein. Some entries that bind do so weakly or less than the wild type.

Amino acid sequences for entries named in this document (tags omitted).
UniProt Q969H0: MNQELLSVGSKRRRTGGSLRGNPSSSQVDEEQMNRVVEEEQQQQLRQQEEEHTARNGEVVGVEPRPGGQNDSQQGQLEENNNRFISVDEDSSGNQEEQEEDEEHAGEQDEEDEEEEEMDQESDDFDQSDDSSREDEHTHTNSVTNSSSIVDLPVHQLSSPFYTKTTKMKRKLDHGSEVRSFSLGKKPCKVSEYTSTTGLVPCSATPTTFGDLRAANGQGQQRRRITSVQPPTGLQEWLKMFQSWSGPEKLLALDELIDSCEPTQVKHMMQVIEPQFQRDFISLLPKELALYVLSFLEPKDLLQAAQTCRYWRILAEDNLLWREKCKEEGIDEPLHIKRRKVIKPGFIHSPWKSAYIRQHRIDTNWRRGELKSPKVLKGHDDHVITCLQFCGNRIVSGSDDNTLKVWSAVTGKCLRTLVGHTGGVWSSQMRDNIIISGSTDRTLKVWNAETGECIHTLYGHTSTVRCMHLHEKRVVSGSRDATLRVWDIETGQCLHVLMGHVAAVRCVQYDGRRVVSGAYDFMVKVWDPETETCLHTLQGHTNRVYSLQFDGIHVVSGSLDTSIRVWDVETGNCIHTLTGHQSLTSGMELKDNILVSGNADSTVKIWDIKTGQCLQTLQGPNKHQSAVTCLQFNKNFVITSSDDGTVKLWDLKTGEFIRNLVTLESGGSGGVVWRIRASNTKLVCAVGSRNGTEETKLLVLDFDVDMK

Biological target: FBXW7 (human (in Ishikawa and HEC-1A cells)) (UniProt Q969H0)
Test: co-IP; immunoprecipitation from Ishikawa cells with or without SOCS2-AS1 overexpression and from HEC-1A cells with or without SOCS2-AS1 knockdown; which protein was precipitated not given

B1: Aurora kinase A (enzyme, UniProt O14965 1-403)
chain: MDRSKENCISGPVKATAPVGGPKRVLVTQQFPCQNPLPVNSGQAQRVLCPSNSSQRIPLQAQKLVSSHKPVQNQKQKQLQATSVPHPVSRPLNNTQKSKQPLPSAPENNPEEELASKQKNEESKKRQWALEDFEIGRPLGKGKFGNVYLAREKQSKFILALKVLFKAQLEKAGVEHQLRREVEIQSHLRHPNILRLYGYFHDATRVYLILEYAPLGTVYRELQKLSKFDEQRTATYITELANALSYCHSKRVIHRDIKPENLLLGSAGELKIADFGWSVHAPSSRRTTLCGTLDYLPPEMIEGRMHDEKVDLWSLGVLCYEFLVGKPPFEANTYQETYKRISRVEFTFPDFVTEGARDLISRLLKHNPSQRPMLREVLEHPWITANSSKPSNCQNKESASKQS
B1 was tested, and the binding was “binds”.
